Results deposited as PubChem BioAssay AID652248 (Drosophila RNAi Screening Center, 2013).
Shown is an unselected part of 863 reagents tested. 32 of them (3.7%) count as active. 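Calls also used reproducibility and a similarity ranking whose scores are not deposited; many active genes show only modest elongated scores.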 Names joined by + are all predicted targets of the reagent. Not all columns of the deposit are shown. The record does not give: the amount of reagent, the time to read-out.

Test: 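Kinase and phosphatase regulators of cell lengthening and shape variety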 (primary screen)
Cell system: cultured Drosophila hemocytes
Reagents: long dsRNA against Drosophila genes
Read-out: 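Automated microscopy of stained actin, tubulin and nuclei; single-cell shape measures assigned to five reference shape types, giving a score per dsRNA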
Reading the numbers: elongated score: higher = more elongated bipolar cells; normal round score: higher = more normal rounded cells
Hit rule: 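Hits show a significant increase of elongated cells; higher rank given where elongated cells rose as other shape types fell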

| predicted target | dsRNA | elongated score, rep 1 | elongated score, rep 2 | normal round score, rep 1 | activity call |
| --- | --- | --- | --- | --- | --- |
| mnb (GeneID 32771) | DRSC20353 | -0.53 | – | 1.08 | inactive |
| mnb (GeneID 32771) | DRSC23347 | -0.25 | – | -0.75 | inactive |
| mnb (GeneID 32771) | DRSC28430 | 0 | – | -1.14 | inactive |
| CG6800 (GeneID 42562) | DRSC16119 | 0.07 | – | -0.63 | inactive |
| Spred (GeneID 36643) | DRSC05976 | 5.53 | – | 0.06 | inactive |
| Spred (GeneID 36643) | DRSC27475 | 1.63 | – | 0.04 | inactive |
| Mvk + CG33672 + spt4 | DRSC05356 | 2.34 | – | -1.06 | inactive |
| Mvk + CG33672 + spt4 | DRSC06628 | -0.53 | – | 0.19 | inactive |
| RIOK2 (GeneID 43046) | DRSC14413 | -0.03 | – | -0.92 | inactive |
| pre-mod(mdg4)-X + mod(mdg4) + pre-mod(mdg4)-AE + 3 more | DRSC16328 | -0.04 | – | -1.44 | inactive |
| PpY-55A (GeneID 48532) | DRSC07513 | 6.37 | – | -3.24 | inactive |
| PpY-55A (GeneID 48532) | DRSC23328 | -0.39 | – | -0.18 | inactive |
| PpY-55A (GeneID 48532) | DRSC26547 | 0.14 | – | -0.8 | inactive |
| Dlish (GeneID 37014) | DRSC06016 | 0.45 | – | -2.17 | inactive |
| Pp2A-29B (GeneID 2768940) | DRSC03400 | -0.07 | – | -1.02 | inactive |
| Pp2A-29B (GeneID 2768940) | DRSC28394 | 9.2 | – | -5.02 | inactive |
| Alk (GeneID 53425) | DRSC05918 | -0.53 | – | 0.02 | inactive |
| Alk (GeneID 53425) | DRSC23342 | 0.48 | – | -1.2 | inactive |
| cert (GeneID 38928) | DRSC09674 | 0.54 | – | -0.63 | inactive |
| Pask (GeneID 37824) | DRSC04337 | 0.02 | – | -0.26 | inactive |
| Pask (GeneID 37824) | DRSC28829 | 2.29 | – | -1.48 | inactive |
| ssh (GeneID 42986) | DRSC16730 | 1.42 | – | -2.25 | inactive |
| ssh (GeneID 42986) | DRSC28782 | 1.93 | – | -1.27 | inactive |
| FER (GeneID 41118) | DRSC12735 | -0.36 | – | 0.52 | inactive |
| FER (GeneID 41118) | DRSC16673 | -0.53 | – | -0.15 | inactive |
| FER (GeneID 41118) | DRSC29894 | 3.21 | – | -1.73 | inactive |
| Lar (GeneID 35259) | DRSC01707 | -0.53 | – | 1.2 | inactive |
| Lar (GeneID 35259) | DRSC03361 | -0.33 | – | -0.27 | inactive |
| Pka-R2 (GeneID 36041) | DRSC07509 | 0.25 | – | -1.03 | inactive |
| Pka-R2 (GeneID 36041) | DRSC29214 | 4.2 | – | -2.44 | inactive |
| S6kII (GeneID 33139) | DRSC20645 | -0.16 | – | -0.89 | inactive |
| SNF4Agamma (GeneID 42515) | DRSC13461 | 1.22 | – | -2.24 | inactive |
| SNF4Agamma (GeneID 42515) | DRSC13463 | 0.18 | – | -0.6 | inactive |
| SNF4Agamma (GeneID 42515) | DRSC15879 | -0.53 | – | 0.94 | inactive |
| SNF4Agamma (GeneID 42515) | DRSC16847 | 0.2 | – | -0.72 | inactive |
| babo (GeneID 35900) | DRSC07581 | -0.21 | – | -0.73 | inactive |
| CG10177 (GeneID 42772) | DRSC14201 | -0.42 | – | 0.8 | inactive |
| CG10177 (GeneID 42772) | DRSC27888 | 0.56 | – | -1.92 | inactive |
| CG4945 (GeneID 36850) | DRSC06904 | -0.22 | – | -0.07 | inactive |
| CG4945 (GeneID 36850) | DRSC29644 | 1.7 | – | -1.25 | inactive |
| niki (GeneID 42959) | DRSC14285 | -0.26 | -0.15 | 0.4 | inactive |
| Mekk1 (GeneID 42253) | DRSC16302 | -0.18 | – | -0.12 | inactive |
| Mekk1 (GeneID 42253) | DRSC16303 | -0.45 | – | 0.59 | inactive |
| Sdr (GeneID 41809) | DRSC15517 | -0.53 | – | 0.22 | inactive |
| CG42675 (GeneID 40722) | DRSC12157 | -0.53 | – | -1.59 | inactive |
| CG42675 (GeneID 40722) | DRSC26577 | -0.37 | – | -1.08 | inactive |

An excerpt from above, limited to “elongated score, rep 1”.
cert (GeneID 38928) [DRSC09674]: 0.54
Pask (GeneID 37824) [DRSC04337]: 0.02
Pask (GeneID 37824) [DRSC28829]: 2.29
ssh (GeneID 42986) [DRSC16730]: 1.42
ssh (GeneID 42986) [DRSC28782]: 1.93
